Assay results reported in patent US20110136108A1, “XBP1(S) Protein Acting as an Adipocyte Differentiation Marker Having a Facility to Regulate Differentiation into Adipocytes, and an Application Therefor” (CATHOLICE UNIVERSITY INDUSTRY ACADEMIC COOPERATION …, priority 2008, published 2011).
For at least one compound, name, drawing or mass did not settle the structure.

Key:
XBP1(S) = XBP1(S) expression during adipocyte differentiation (immunoblot); type: cell-based, mouse; conditions: SFG-xbp1i cells, 50 μM rosiglitazone in induction medium
[1] = test system: XBP1(S)-knock-down 3T3-L1 precursor cells (SFG-xbp1i); assay: Morphological analysis of adipocyte differentiation (Oil-Red O staining); type: cell-based, mouse; conditions: 50 μM rosiglitazone in induction medium, versus absence of rosiglitazone

Compound: CN(CCOc1ccc(CC2SC(=O)NC2=O)cc1)c1ccccn1 (centres unmarked) [rosiglitazone]
- expression level of XBP1(S) versus absence of rosiglitazone (XBP1(S)): higher
- adipocyte differentiation (morphology) [1]: mature adipocytes started to appear from Day 6
